Measured values from patent US7291730B2, “Pyrimidine compounds and their use” (Sumitomo Chemical Company, Limited, priority 2000, dated 2007).
Some of these results come from one statement about several compounds together. At least one compound was matched to its structure with a doubt left.

Tests used:
Format in all cases: in vivo
[1] = test system: Cotton Aphids (Aphis gossypii); experiment: Insecticidal test against cotton aphids, foliar spray on cucumber (Test Example 1); conditions: 500 ppm, sprayed 20 ml/cup onto cucumber plants with about 20 cotton aphids, 6th day after the application
[2] = test system: Cotton Aphids (Aphis gossypii); experiment: Insecticidal test against cotton aphids, solution absorbed from the bottom of the cup (Test Example 2); conditions: 500 ppm, 55 ml absorbed from the bottom of the cups (cucumber seedlings), left 6 days at 25° C., then about 20 cotton aphids
[3] = test system: Brown Planthoppers (Nilaparvata lugens); experiment: Insecticidal test against brown planthoppers, solution absorbed from the bottom of the cup (Test Example 6); conditions: 45.5 ppm, 55 ml absorbed from the bottom of the cup (rice plants), thirty first-instar larvae released after 6 days, 6th day after release
[4] = test system: Brown Planthoppers (Nilaparvata lugens); experiment: Insecticidal test against brown planthoppers, spray on rice (Test Example 5); conditions: 500 ppm, sprayed 20 ml/cup onto rice plants, thirty first-instar larvae, 6th day after release

SMILES	control value [1]	control value [2]	number of parasitic insects [3]	number of parasitic insects [4]
C#CCOc1cc(OCC#CC)ncn1 [(2)]	≥ 90%	–	–	–
CC#CCOc1cc(OC2CCCC2)ncn1 [(158)]	–	≥ 90%	–	–
CC#CCOc1cc(OC2CCCC(C)C2)ncn1 (stereo not shown) [(182)]	≥ 90%	–	–	–
CC#CCOc1ncnc(Oc2ccccc2F)c1F [(183)]	≥ 90%	–	–	–
CC#CCOc1ncnc(N(CC)CCC)c1F [(185)]	≥ 90%	≥ 90%	≤ 3	–
CCC#CCOc1cc(Oc2cccc(F)c2F)ncn1 [(60)]	–	–	–	≤ 3
CC#CCOc1cc(Cc2cccc(F)c2F)ncn1 [(96)]	–	≥ 90%	–	≤ 3
C=C(c1ccccc1)c1cc(OCC#CC)ncn1 [(155)]	–	–	–	≤ 3
CC#CCOc1cc(C(C)c2ccccc2F)ncn1 (stereo not shown) [(120)]	≥ 90%	≥ 90%	–	–
CC#CCOc1cc(-c2ccc(F)cc2F)ncn1 [(44)]	–	≥ 90%	–	–
C#CCOc1cc(OCc2ccccc2)ncn1 [(13)]	≥ 90%	–	–	–
CC#CC(C)Oc1cc(-c2cccc(F)c2F)ncn1 (stereo not shown) [(167)]	–	–	≤ 3	≤ 3
CC#CCOc1cc(C(=O)c2ccccc2)ncn1 [(75)]	≥ 90%	–	–	–
CC#CCOc1cc(-c2ccc(F)cc2)ncn1 [(59)]	–	–	–	≤ 3
CC#CCOc1ncnc(Oc2ccccc2)c1F [(179)]	–	–	–	≤ 3
C=CCN(CC)c1cc(OCC#CC)ncn1 [(110)]	–	≥ 90%	≤ 3	–
CC#CCOc1cc(Sc2ccccc2)ncn1 [(97)]	–	–	–	≤ 3
CC#CCOc1cc(C(OCOC)c2ccccc2)ncn1 (stereo not shown) [(137)]	≥ 90%	≥ 90%	–	–
CC#CCOc1cc(O[C@H]2CC[C@@H](C)CC2)ncn1 [(187)]	–	–	–	≤ 3
CC#CCOc1cc(Nc2cccc(F)c2F)ncn1 [(73)]	≥ 90%	–	–	–
CC#CCOc1cc(-c2c(F)cccc2F)ncn1 [(87)]	–	–	≤ 3	≤ 3

SMILES	control value [1]	control value [2]	number of parasitic insects [3]	number of parasitic insects [4]
CC#CCOc1cc(-c2ccccc2F)ncn1 [(55)]	–	–	≤ 3	≤ 3
CC#CCOc1cc(Oc2cccc(F)c2F)ncn1 [(39)]	–	≥ 90%	–	≤ 3
CC#CCOc1cc(-c2cccc(F)c2F)ncn1 [(83)]	–	≥ 90%	–	≤ 3
CCC#CCOc1cc(-c2cccc(F)c2F)ncn1 [(117)]	–	–	–	≤ 3
CC#CCOc1cc(C(OC)c2ccccc2)ncn1 (stereo not shown) [(122)]	≥ 90%	–	–	–
CC#CCOc1cc(C(F)c2ccccc2)ncn1 (stereo not shown) [(124)]	≥ 90%	≥ 90%	–	–
CC#CCOc1cc(N(CCC)CCC)ncn1 [(113)]	≥ 90%	–	–	–
CC#CCOc1cc(Oc2ccccc2F)ncn1 [(63)]	–	≥ 90%	–	–
CC#CCOc1cc(C(OCC)c2ccccc2)ncn1 (stereo not shown) [(138)]	≥ 90%	≥ 90%	–	–
C#CCOc1cc(Oc2ccccc2)ncn1 [(51)]	≥ 90%	≥ 90%	–	–
CC#CCOc1cc(Oc2ccccc2C#N)ncn1 [(42)]	–	≥ 90%	–	–
C#CCOc1cc(Oc2cccc(C)c2)ncn1 [(29)]	≥ 90%	–	–	–
CC#CCOc1cc(N(CC)Cc2ccccc2)ncn1 [(129)]	≥ 90%	–	–	–
CC#CCOc1cc(Oc2ccccc2)ncn1 [(9)]	≥ 90%	≥ 90%	–	–
CC#CCOc1cc(Oc2ccc(F)c(F)c2)ncn1 [(10)]	≥ 90%	–	–	–
CC#CCOc1cc(Cc2c(F)cccc2F)ncn1 [(80)]	–	≥ 90%	–	≤ 3
CCC#CCOc1cc(OCC#CCC)ncn1 [(3)]	≥ 90%	–	–	–
CC#CCOc1cc(OC2CCCCC2F)ncn1 (stereo not shown) [(178)]	–	–	–	≤ 3
C#CCOc1cc(OCC#CCC)ncn1 [(5)]	≥ 90%	–	≤ 3	≤ 3
C#CCOc1cc(Oc2ccccc2C)ncn1 [(27)]	≥ 90%	–	–	–
C#CC(C)Oc1cc(-c2cccc(F)c2F)ncn1 (stereo not shown) [(134)]	≥ 90%	–	–	–

SMILES	control value [1]	control value [2]	number of parasitic insects [3]	number of parasitic insects [4]
CC#CCOc1ncnc(Cc2ccccc2F)c1F [(191)]	–	–	–	≤ 3
C#CC(C)Oc1cc(-c2ccccc2F)ncn1 (stereo not shown) [(150)]	–	–	–	≤ 3
CC#CCOc1cc(O[C@@H]2CCCC[C@@H]2C)ncn1 (relative stereo) [(172)]	≥ 90%	–	≤ 3	≤ 3
FCC#CCOc1cc(-c2cccc(F)c2F)ncn1 [(135)]	≥ 90%	–	–	–
CC#CC(C)Oc1cc(Cc2c(F)cccc2F)ncn1 (stereo not shown) [(147)]	–	–	–	≤ 3
CC#CC(C)Oc1cc(-c2cccc(F)c2)ncn1 (stereo not shown) [(173)]	≥ 90%	–	≤ 3	≤ 3
CC#CCOc1cc(-c2ccccc2)ncn1 [(38)]	–	–	–	≤ 3
C#CCOc1cc(Oc2cccc(Cl)c2Cl)ncn1 [(26)]	≥ 90%	–	–	–
CC#CCOc1cc(N(CC)CC)ncn1 [(144)]	–	≥ 90%	≤ 3	–
CC#CCOc1cc(OC2CCCC(C)C2C)ncn1 (stereo not shown) [(181)]	–	–	≤ 3	–
CC#CCOc1cc(OCC#CC)ncn1 [(1)]	≥ 90%	–	–	–
CCCC#CCOc1cc(-c2cccc(F)c2F)ncn1 [(118)]	–	–	≤ 3	≤ 3
CC#CCOc1cc(N(CC)CC#CC)ncn1 [(109)]	–	–	–	≤ 3
CC#CCOc1cc(C(C#N)c2cccc(F)c2F)ncn1 (stereo not shown) [(72)]	≥ 90%	–	–	–
CC#CCOc1cc(NCC)ncn1 [(108)]	–	≥ 90%	–	–
CC#CCOc1cc(N(CC)C(C)C)ncn1 [(105)]	–	≥ 90%	–	–
CC#CCOc1cc(Cc2ccccc2F)ncn1 [(88)]	–	≥ 90%	–	≤ 3
CC#CCOc1cc(N(CC)CC(F)(F)C(F)(F)F)ncn1 [(112)]	≥ 90%	≥ 90%	–	–
CC#CCOc1cc(O[C@@H]2CCC[C@H]2C)ncn1 (relative stereo) [(169)]	–	–	≤ 3	≤ 3
CC#CCOc1cc(NC(C)C)ncn1 [(106)]	–	≥ 90%	–	≤ 3
C#CCOc1cc(OC(C)C#C)ncn1 (stereo not shown) [(11)]	–	–	–	≤ 3

SMILES	control value [1]	control value [2]	number of parasitic insects [3]	number of parasitic insects [4]
CC#CCOc1cc(Oc2c(F)cccc2F)ncn1 [(33)]	–	≥ 90%	–	–
CC#CCOc1cc(N(CC)CC(F)(F)F)ncn1 [(115)]	–	≥ 90%	–	–
CC#CCOc1cc(Cc2c(F)ccc(F)c2Cl)ncn1 [(130)]	≥ 90%	–	–	≤ 3
C#CCOc1cc(Oc2c(F)cccc2F)ncn1 [(21)]	≥ 90%	≥ 90%	–	≤ 3
C#CCOc1cc(Oc2cccc(F)c2)ncn1 [(36)]	–	≥ 90%	–	≤ 3
CC#CCOc1cc(Oc2c(F)cc(F)cc2F)ncn1 [(45)]	–	≥ 90%	–	–
CC#CCOc1cc(Cc2c(F)cccc2Cl)ncn1 [(101)]	–	≥ 90%	≤ 3	≤ 3
CC#CCOc1cc(N(CC)CCC)ncn1 [(104)]	–	≥ 90%	–	≤ 3
CC#CC(C)Oc1cc(-c2ccc(F)cc2)ncn1 (stereo not shown) [(174)]	–	–	–	≤ 3
CC#CCOc1cc(N(C)c2cccc(F)c2F)ncn1 [(66)]	≥ 90%	–	–	–
CC#CCOc1cc(C(C)(O)c2ccccc2F)ncn1 (stereo not shown) [(157)]	–	≥ 90%	–	–
CC#CC(C)Oc1cc(-c2ccccc2F)ncn1 (stereo not shown) [(151)]	–	–	≤ 3	≤ 3
CC#CCOc1cc(Oc2cccc(F)c2)ncn1 [(61)]	–	–	–	≤ 3
CC#CCOc1cc(C(C)(O)c2ccccc2)ncn1 (stereo not shown) [(148)]	–	≥ 90%	–	–
CC#CCOc1cc(Oc2cccc(C)c2C)ncn1 [(67)]	≥ 90%	–	–	–
CC#CCOc1cc(O[C@H]2CC[C@H](C)CC2)ncn1 [(188)]	–	–	–	≤ 3
CC#CCOc1cc(Cc2c(Cl)ccc(C)c2F)ncn1 [(121)]	≥ 90%	≥ 90%	–	–
CC#CCOc1cc(-c2cccc(F)c2)ncn1 [(57)]	–	–	≤ 3	≤ 3
CCC#CCOc1cc(-c2ccccc2F)ncn1 [(86)]	–	–	≤ 3	≤ 3
